Here are results for one substance from paper PMC10279700, “Structural insights into regulation of the PEAK3 pseudokinase scaffold by 14-3-3” (Nature Communications, 2023).

What all share (experiment): co-IP; FLAG-tagged PEAK3 variants transiently expressed in HEK293; anti-FLAG/protein A beads overnight at 4 °C; endogenous 14-3-3 detected with anti-pan 14-3-3 by Western blot; also after 1 h of 0.1% DMSO or PKD inhibitors CRT0066101 or CID755673 (dose-dependent decrease, not abolished)
In general terms: In western blotting, separated proteins are transferred to a membrane and probed.

Assay [1] addresses T1, FLAG-tagged PEAK3 K293A/W298A (human) (UniProt Q6ZS72).
T1 sequence: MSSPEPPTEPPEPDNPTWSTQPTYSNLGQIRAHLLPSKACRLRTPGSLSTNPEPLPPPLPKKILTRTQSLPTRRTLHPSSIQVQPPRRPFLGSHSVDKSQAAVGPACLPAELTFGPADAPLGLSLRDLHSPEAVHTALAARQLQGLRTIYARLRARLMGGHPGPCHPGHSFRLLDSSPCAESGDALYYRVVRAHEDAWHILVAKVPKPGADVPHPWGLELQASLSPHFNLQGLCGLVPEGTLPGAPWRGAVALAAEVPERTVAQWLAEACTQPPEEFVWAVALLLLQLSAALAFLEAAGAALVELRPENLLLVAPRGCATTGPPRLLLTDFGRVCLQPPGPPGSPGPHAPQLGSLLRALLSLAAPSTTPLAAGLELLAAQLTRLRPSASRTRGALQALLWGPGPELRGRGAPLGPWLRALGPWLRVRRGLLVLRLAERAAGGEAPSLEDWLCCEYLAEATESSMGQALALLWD

Assay [2] concerns the target T2, FLAG-tagged PEAK3 W298A (human) (UniProt Q6ZS72).
T2 sequence: T1 sequence with A293K

Assay [3] has as its target T3, FLAG-tagged PEAK3 S69E (human) (UniProt Q6ZS72).
T3 sequence: T1 sequence with S69E, A293K, A298W

The target in assay [4] is T4, FLAG-tagged PEAK3 S225A (human) (UniProt Q6ZS72).
T4 sequence: T1 sequence with S225A, A293K, A298W

Assay [5] concerns the target T5, FLAG-tagged PEAK3 S69A (human) (UniProt Q6ZS72).
T5 sequence: T1 sequence with S69A, A293K, A298W

Assay [6] deals with T6, FLAG-tagged PEAK3 K293A (human) (UniProt Q6ZS72).
T6 sequence: T1 sequence with A298W

Numbering of substitutions follows the chain as printed. These are yes or no findings as the source states them, for the method shown. In cells and extracts the contact can be indirect. For part of these data: A result given as binding can be weak or reduced; the word gives no strength. Tags and fused reporters may be left off the sequences shown.

Consider “endogenous 14-3-3 (human (endogenous in HEK293))”, for which the binding result in assay [1] is given as “binds”; in assay [2], “binds”; in assay [3], “no binding”; in assay [4] it was “binds”; in assay [5], “no binding”; in assay [6], “binds”.
